In article PMC7610265:
No constants are given. Whether binding was seen depends on the method and setting. In cells and extracts the contact can be indirect. Binding calls can cover weak binding; strength is not graded here.

The chains behind the UniProt entries cited, without tags or fusion partners. Where a name states a change or a piece, a line headed by the entry shows the natural chain unless it says otherwise.
UniProt Q14145: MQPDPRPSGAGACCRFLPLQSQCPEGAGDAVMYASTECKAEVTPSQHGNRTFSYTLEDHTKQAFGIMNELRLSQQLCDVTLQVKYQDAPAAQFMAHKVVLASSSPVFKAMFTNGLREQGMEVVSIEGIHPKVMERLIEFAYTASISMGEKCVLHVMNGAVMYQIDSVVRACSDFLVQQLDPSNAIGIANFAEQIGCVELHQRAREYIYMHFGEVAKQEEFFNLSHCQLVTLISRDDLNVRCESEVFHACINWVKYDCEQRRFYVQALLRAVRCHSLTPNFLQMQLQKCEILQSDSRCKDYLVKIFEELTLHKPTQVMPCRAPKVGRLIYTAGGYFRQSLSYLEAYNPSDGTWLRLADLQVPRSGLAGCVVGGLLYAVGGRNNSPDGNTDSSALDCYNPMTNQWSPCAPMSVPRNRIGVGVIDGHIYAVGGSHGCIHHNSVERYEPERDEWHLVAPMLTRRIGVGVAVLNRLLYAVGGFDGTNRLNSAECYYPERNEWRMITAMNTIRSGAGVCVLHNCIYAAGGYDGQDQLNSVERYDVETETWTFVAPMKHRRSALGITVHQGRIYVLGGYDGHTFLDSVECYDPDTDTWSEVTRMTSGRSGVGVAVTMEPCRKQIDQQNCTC
UniProt P48436: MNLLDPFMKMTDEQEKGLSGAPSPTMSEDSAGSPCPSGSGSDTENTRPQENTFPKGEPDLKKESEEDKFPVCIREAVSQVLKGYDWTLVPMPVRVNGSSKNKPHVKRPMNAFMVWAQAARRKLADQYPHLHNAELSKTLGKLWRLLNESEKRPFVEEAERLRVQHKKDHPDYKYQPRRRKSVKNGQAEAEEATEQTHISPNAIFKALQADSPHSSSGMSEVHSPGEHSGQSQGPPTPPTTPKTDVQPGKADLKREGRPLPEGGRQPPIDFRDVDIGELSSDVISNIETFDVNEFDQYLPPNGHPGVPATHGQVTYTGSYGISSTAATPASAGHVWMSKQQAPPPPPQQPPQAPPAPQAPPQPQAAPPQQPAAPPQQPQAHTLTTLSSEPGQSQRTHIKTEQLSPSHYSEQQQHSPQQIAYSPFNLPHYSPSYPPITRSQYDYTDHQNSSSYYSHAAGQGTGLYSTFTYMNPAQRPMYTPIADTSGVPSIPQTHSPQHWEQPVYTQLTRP

Tests used:
[1] = target: KEAP1 (tag not told for these experiments) (human) (UniProt Q14145); assay: co-IP; HEK293T cells expressing Flag-tagged WT SOX9, truncated SOX9 mutants or SOX9 degron deletion mutants
[2] = target: Flag-KEAP1 G333S (lung carcinoma-associated mutant) (human) (UniProt Q14145); assay: co-IP; HEK293T cells expressing Flag-tagged WT KEAP1 or lung carcinoma-associated KEAP1 mutants

binding [1]	binding [2]	Substance
binds	–	Flag-SOX9 degron 1 deletion mutant (ΔDeg1) (from UniProt P48436)
–	binds weakly	SOX9 (HEK293T cells; tag not told for these experiments) (from UniProt P48436 1-509)
